From PMC10897480, “Molecular details of ruthenium red pore block in TRPV channels” (EMBO Reports, 2024)
No constants are given. Whether binding was seen depends on the method and setting. Some binding calls cover weakened binding; strength is not graded here.

Molecular target: T1, wild-type rat TRPV2 (rat), Q9WUD2
T1 chain: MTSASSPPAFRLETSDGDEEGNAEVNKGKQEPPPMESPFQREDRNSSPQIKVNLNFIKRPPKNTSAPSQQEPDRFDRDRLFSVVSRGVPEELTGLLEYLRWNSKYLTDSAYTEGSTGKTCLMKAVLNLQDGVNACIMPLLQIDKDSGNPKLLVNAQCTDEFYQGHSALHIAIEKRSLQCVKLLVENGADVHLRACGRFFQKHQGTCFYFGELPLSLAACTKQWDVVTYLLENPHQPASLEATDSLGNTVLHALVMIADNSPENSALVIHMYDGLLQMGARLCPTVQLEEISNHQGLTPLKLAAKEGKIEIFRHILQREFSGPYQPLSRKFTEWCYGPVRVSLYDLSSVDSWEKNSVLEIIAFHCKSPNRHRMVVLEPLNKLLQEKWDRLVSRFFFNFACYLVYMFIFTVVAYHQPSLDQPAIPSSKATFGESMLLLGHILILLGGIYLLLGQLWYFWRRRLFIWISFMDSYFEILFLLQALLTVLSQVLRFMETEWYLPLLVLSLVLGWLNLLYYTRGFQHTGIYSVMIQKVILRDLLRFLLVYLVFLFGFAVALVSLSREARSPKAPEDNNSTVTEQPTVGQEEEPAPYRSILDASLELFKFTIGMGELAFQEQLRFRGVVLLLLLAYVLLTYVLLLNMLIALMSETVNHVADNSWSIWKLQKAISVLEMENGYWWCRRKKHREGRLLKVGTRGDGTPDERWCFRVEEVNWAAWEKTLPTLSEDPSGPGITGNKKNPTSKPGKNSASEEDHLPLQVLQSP
Assay: cryo-EM structure; channel tetramer in MSP2N2/soy polar lipid nanodiscs, 20 mM Hepes pH 8.0, 150 mM NaCl, 2 mM TCEP; with 1 mM ruthenium red, with or without activator (1 mM 2-APB for TRPV2; 400 uM diC8-PI(4,5)P2 for TRPV5); both purified
Settings: remark: other sources report otherwise

binding: binds
B1: wild-type rat TRPV2, Q9WUD2 1-761 (protein)
chain: T1 chain
